# Some peptides are written in HELM: one residue between dots, names in brackets for other building blocks, links after the first $.
# Experiment: general procedure: Boc solid-phase peptide synthesis
# Settings: whole synthesis
substance,measurement,value
PEPTIDE1{H.P.F.H.[LeuRLeu].V.Y}$$$$V2.0,difficulty met,"lower incorporation of the isostere in the ""L"" case and less removal of the histidine with Na/NH3"
